According to PubChem BioAssay AID330 (DTP/NCI, 2004):
The list shows only some results of the screen, not a fair sample: it gathers tests that were run many times, whatever their T/C, doses with no T/C, and many T/C values between a quarter and a half above the control. Further doses and runs are listed elsewhere. T/C gives the treated animals as a percentage of the vehicle group. Some entries give survivors of the animals treated and no T/C: the source files T/C as zero there, which appears to mark a toxic dose or a test without result, not a measured value. Some doses without a T/C left all or most animals alive at the check, yet need not have been tolerated: the source hardly ever lists a survival T/C far under the control, and the zero likely stands for such cases as well. Counts of survivors are from the toxicity check (mostly the fifth day) where no day follows; animals may have died later. Schedule codes are those of the source, taken here to give the interval after Q, in days (D) or hours (H), and the number of doses after X. Marks such as (2×) say how often a value occurs here. Some entries hold several experiments; the results are listed from low to high. Where survival is the endpoint, the PubChem record calls one and a half times the control and up active, and a quarter to a half above the control has no call in these data; cut-offs in other NCI protocols can differ.

Tested on: P388 leukemia ip, CD2F1 mice, survival T/C
Test: NCI In Vivo Anticancer Drug Screen. Data for tumor model P388 Leukemia (intraperitoneal) in CD2F1 (CDF1) mice
Conditions: T/C endpoint: median survival time, higher T/C = longer survival
[1] = dose: 50.0 mg/kg/injection, schedule: Q01DX005 (ip), vehicle: saline with Tween-80
[2] = dose: 100.0 mg/kg/injection, schedule: Q01DX005 (ip), vehicle: saline with Tween-80
[3] = dose: 200.0 mg/kg/injection, schedule: Q01DX005 (ip), vehicle: saline with Tween-80
[4] = dose: 100.0 mg/kg/injection, schedule: Q01DX009 (ip), vehicle: saline
[5] = dose: 200.0 mg/kg/injection, schedule: Q01DX009 (ip), vehicle: saline

In the case of `C/C(=N\NC(=S)NCc1ccccc1)c1nccnc1C`, the T/C (dose: 12.5 mg/kg/injection, schedule: Q01DX005 (ip), vehicle: saline with Tween-80) was 130 and 136 % of control, the survivor count (dose: 25.0 mg/kg/injection, schedule: Q01DX005 (ip), vehicle: saline with Tween-80) was 4 of 6 and 5 of 6 and the survivor count [1] was 2 of 6. The survivor count [2] was 0 of 6 and the survivor count [3] was 0 of 6.

For `CN=C(NC)c1ccc(NC(=O)Nc2cccc(NC(=O)Nc3ccc(C(=NC)NC)cc3)c2)cc1`, the T/C (dose: 6.25 mg/kg/injection, schedule: Q01DX005 (ip), vehicle: saline with Tween-80) was 137 and 140 % of control, the survivor count [1] was 0 of 6 and the survivor count [2] was 0 of 6. The survivor count [3] was 0 of 6.

With `COc1cc(/C=C2\NC(=S)N(c3ccccc3)C2=O)ccc1O` the survivor count [1] was 5 of 5.

For `NC1CC1N` (stereo unspecified), the survivor count (dose: 50.0 mg/kg/injection, schedule: Q01DX009 (ip), vehicle: saline) was 6 of 6, the survivor count [4] was 0 of 6 and the survivor count [5] was 0 of 6.

With `CC1(C(=O)O)CCC2(C)CCC3(C)C(=CC(=O)C4C5(C)CCC(O)C(C)(C)C5CCC43C)C2C1` (stereo unspecified) the survivor count (dose: 400.0 mg/kg/injection, schedule: Q04DX003 (ip), vehicle: Klucel (hydroxypropylcellulose) (HPC)) was 0 of 6.

With `CN(C)c1ccc(C=NCCCN=Cc2ccc(N(C)C)cc2)cc1` the survivor count (dose: 200.0 mg/kg/injection, schedule: Q01DX009 (ip), vehicle: saline with Tween-80) was 3 of 6 and the survivor count (dose: 400.0 mg/kg/injection, schedule: Q01DX009 (ip), vehicle: saline with Tween-80) was 1 of 6.

`CCOC(=O)C(=C/C=C/N(C)C)C(=O)OCC` was tested, and the survivor count (dose: 400.0 mg/kg/injection, schedule: Q01DX001 (ip), vehicle: saline) was 0 of 6.

With `CCOP(=O)(N1CC1(C)C)N1CC1(C)C` (stereo unspecified) the T/C (dose: 10.0 mg/kg/injection, schedule: Q01DX009 (ip), vehicle: saline) was 135 % of control, the T/C (dose: 80.0 mg/kg/injection, schedule: Q01DX009 (ip), vehicle: saline) was 145 % of control and the survivor count (dose: 120.0 mg/kg/injection, schedule: Q01DX009 (ip), vehicle: saline) was 6 of 6.

With `C(=N\Nc1nn[nH]n1)/c1ccccc1` the survivor count (dose: 400.0 mg/kg/injection, schedule: Q01DX009 (ip), vehicle: suspension in saline) was 3 of 6.

In the case of `COc1ccccc1NC(=O)CC(=O)N1N=C(C)C(N=Nc2cccc(C(=O)O)c2)C1=O` (stereo unspecified), the survivor count (dose: 240.0 mg/kg/injection, schedule: Q01DX005 (ip), vehicle: saline with Tween-80) was 2 of 6.

`O=C(O)c1cc2c([N+](=O)[O-])cccc2[se]1` was tested, and the survivor count [4] was 6 of 6 and the survivor count [5] was 6 of 6.

In the case of `N[C@H]1c2ccsc2C(=O)[C@H]1O`, the T/C (dose: 120.0 mg/kg/injection, schedule: Q01DX005 (ip), vehicle: saline) was 145 % of control.

`CC(=O)n1c(Cl)c(/C=N/NS(=O)(=O)c2ccc(C)cc2)c2ccccc21` was tested, and the survivor count (dose: 100.0 mg/kg/injection, schedule: Q01DX001 (ip), vehicle: saline with Tween-80) was 6 of 6 (2×), the survivor count (dose: 200.0 mg/kg/injection, schedule: Q01DX001 (ip), vehicle: saline with Tween-80) was 6 of 6 (2×) and the survivor count (dose: 400.0 mg/kg/injection, schedule: Q01DX001 (ip), vehicle: saline with Tween-80) was 6 of 6.

In the case of `[Cl][Mo]([Cl])([Cl])[Cl].[Cl][Mo]([Cl])([Cl])[Cl]`, the survivor count [5] was 5 of 6.

In the case of `O=C1NC(O)c2cc(F)ccc2O1` (stereo unspecified), the T/C [3] was 127 % of control and the survivor count (dose: 400.0 mg/kg/injection, schedule: Q01DX005 (ip), vehicle: saline with Tween-80) was 0 of 5.

For `CCCCCCCCCCCCCCCCCC[N+](C)(C)c1nc(Cl)nc(Cl)n1`, the survivor count [4] was 2 of 6, the survivor count [5] was 0 of 6 and the survivor count (dose: 400.0 mg/kg/injection, schedule: Q01DX009 (ip), vehicle: saline) was 0 of 6.

For `COP(=O)(OC)OC.COP(=O)(OC)OC.COP(=O)(OC)OC.COP(=O)(OC)OC.COP(=O)(OC)OC.COP(=O)(OC)OC.[Mn+2].[O-][Cl+3]([O-])([O-])O`, the survivor count [4] was 6 of 6 and the T/C [5] was 129 % of control.
